These are yes or no findings as the source states them, for the method shown. For some assays here: Binding seen in cells or lysates may run through a third protein. Some results given as binding are weak or reduced against the parent protein; the word gives no strength.
Tests used:
[1] = molecular target: T1, CDCP1 carboxyl-terminal fragment (CDCP1-CTF), 70 kDa (human) (UniProt Q9H5V8); assay: co-immunoprecipitation with 10D7 (binds the ATF), CTF detected with 4115
T1 sequence: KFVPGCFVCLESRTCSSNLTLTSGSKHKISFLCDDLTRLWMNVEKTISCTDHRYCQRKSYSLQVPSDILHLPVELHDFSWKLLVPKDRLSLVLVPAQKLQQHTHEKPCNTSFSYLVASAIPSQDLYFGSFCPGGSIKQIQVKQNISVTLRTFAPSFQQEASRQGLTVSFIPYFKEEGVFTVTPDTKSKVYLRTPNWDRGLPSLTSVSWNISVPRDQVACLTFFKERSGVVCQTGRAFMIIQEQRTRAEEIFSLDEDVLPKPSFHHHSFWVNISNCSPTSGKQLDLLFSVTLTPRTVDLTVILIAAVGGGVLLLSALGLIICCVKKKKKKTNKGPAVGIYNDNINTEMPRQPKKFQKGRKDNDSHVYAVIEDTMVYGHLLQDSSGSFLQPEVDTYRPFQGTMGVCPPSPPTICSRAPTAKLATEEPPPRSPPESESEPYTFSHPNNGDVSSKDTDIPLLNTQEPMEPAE

[2] = molecular target: T1, CDCP1 carboxyl-terminal fragment (CDCP1-CTF), 70 kDa (human); assay: summary of co-IP, SEC and reducing/non-reducing Western blots
[3] = molecular target: T1, CDCP1 carboxyl-terminal fragment (CDCP1-CTF), 70 kDa (human); assay: co-immunoprecipitation with 10D7, whose site lies in ATF; Western blot with 4115 and 2666
[4] = molecular target: T1, CDCP1 carboxyl-terminal fragment (CDCP1-CTF), 70 kDa (human); assay: size-exclusion chromatography of untreated or trypsin treated recombinant CDCP1-ECD, Coomassie gel of the fractions; paragraph 333 reads it as ATF-CTF interaction
[5] = molecular target: T1, CDCP1 carboxyl-terminal fragment (CDCP1-CTF), 70 kDa (human); assay: size-exclusion chromatography of trypsin-cleaved recombinant CDCP1-ECD; products of ~45 and 55 kDa co-eluted with intact ECD

Measured: binding

B1: CDCP1 amino-terminal fragment (CDCP1-ATF), 65 kDa (receptor)
chain: FEIALPRESNITVLIKLGTPTLLAKPCYIVISKRHITMLSIKSGERIVFTFSCQSPENHFVIEIQKNIDCMSGPCPFGEVQLQPSTSLLPTLNRTFIWDVKAHKSIGLELQFSIPRLRQIGPGESCPDGVTHSISGRIDATVVRIGTFCSNGTVSRIKMQEGVKMALHLPWFHPRNVSGFSIANRSSIKRLCIIESVFEGEGSATLMSANYPEGFPEDELMTWQFVVPAHLRASVSFLNFNLSNCERKEERVEYYIPGSTTNPEVFKLEDKQPGNMAGNFNLSLQGCDQDAQSPGILRLQFQVLVQHPQNESNKIYVVDLSNERAMSLTIEPRPVKQSR
notes: Product of proteolytic cleavage of CDCP1
binds: all assays above
